Source: patent US9422239B1, “Dual PPAR-δ PPAR-γ agonists” (Auburn University, priority 2013, dated 2016)
At least one structure is not confirmed: it was looked up by name or label, or the drawing left a doubt.

Assays:
[1] = tested on: db/db mice; test: Y-maze and object recognition task, rosiglitazone; format: in vivo; settings: delivered intracranially into db/db mice, all training intervals
[2] = tested on: BDNF promoter in primary hippocampal neuronal cells; test: BDNF promoter luciferase activity; format: cell-based, rat; settings: dose response curve
Text: Primary hippocampal cells: Rat primary neuron cultures for luciferase assays as well as westerns and all other cell cultured assays are described herein. Rat primary neuron cultures can be generated from embryonic day 18-21 rat embryo (male and female) brains (Sprague Dawley) following known protocols. Briefly, the cortices, together with hippocampi, can be dissected and cells can be dissociated with 0.25% trypsin (Invitrogen), treated with 0.05% DNase I (Roche). To remove alternative cells and RBC's, tissue slurry can be allowed to sediment by gravity for 30 minutes at room temperature. Lower cellular suspension can then be plated on poly-D-lysine-coated dishes in Neurobasal A medium (Invitrogen) with B27 supplement (Invitrogen), penicillin (PAA Laboratories, 100 U/ml), streptomycin (PAA Laboratories, 0.1 mg/ml), and 1 mM L-glutamine (PAA Laboratories). Mitotic inhibitor 5-fluoro-2′-deoxyuridine (Sigma) can be added to the medium (10 μM) at 2 days in vitro (DIV) to remove fibroblast and astrocyte contamination. To test isolation purity for neurons, markers for neurons (MAP2) specificity can be measured by gene and western analysis.
Nine distinct transcriptional initiation sites exist: eight in the 5′ noncoding exon and one preceding coding exon IX, indicating nine different promoters control BDNF transcription sites. […]

## CN(CCOc1ccc(CC2SC(=O)NC2=O)cc1)c1ccccn1 (centres unmarked) [Rosiglitazone, rosiglitazone, reference compound]
[1]
  Preference and entry for the novel arm (Y-maze): improved the impaired preference and entry for the novel arm
[2]
  BDNF promoter activity (luciferase): inducing
